Paper PMC12396675
Results are given in words; binding and its absence hold for the method and conditions named. In cells and extracts the contact can be indirect. Some entries that bind do so weakly or less than the wild type.

T1: receptor-interacting protein kinase 1 (mouse (endogenous in left ventricle)) (UniProt Q60855)
T1 sequence: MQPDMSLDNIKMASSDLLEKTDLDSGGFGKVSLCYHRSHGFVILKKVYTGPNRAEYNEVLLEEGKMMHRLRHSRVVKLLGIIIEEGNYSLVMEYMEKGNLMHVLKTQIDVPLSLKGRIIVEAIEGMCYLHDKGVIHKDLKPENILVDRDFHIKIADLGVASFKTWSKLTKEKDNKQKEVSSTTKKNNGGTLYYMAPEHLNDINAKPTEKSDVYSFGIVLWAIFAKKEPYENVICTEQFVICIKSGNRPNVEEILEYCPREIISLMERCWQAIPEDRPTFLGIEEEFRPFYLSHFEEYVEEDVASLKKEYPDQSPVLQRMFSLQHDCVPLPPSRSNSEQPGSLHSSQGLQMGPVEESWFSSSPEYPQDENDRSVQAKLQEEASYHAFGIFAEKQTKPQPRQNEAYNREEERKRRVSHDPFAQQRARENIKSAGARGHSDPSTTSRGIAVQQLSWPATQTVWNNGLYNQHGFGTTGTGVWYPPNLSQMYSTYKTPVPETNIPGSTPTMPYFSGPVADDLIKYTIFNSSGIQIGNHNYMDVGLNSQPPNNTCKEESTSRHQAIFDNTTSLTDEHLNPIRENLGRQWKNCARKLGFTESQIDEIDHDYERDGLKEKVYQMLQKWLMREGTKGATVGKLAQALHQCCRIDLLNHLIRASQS

T2: receptor-interacting protein kinase 1 (mouse (endogenous in left ventricle)), Q60855
T2 chain: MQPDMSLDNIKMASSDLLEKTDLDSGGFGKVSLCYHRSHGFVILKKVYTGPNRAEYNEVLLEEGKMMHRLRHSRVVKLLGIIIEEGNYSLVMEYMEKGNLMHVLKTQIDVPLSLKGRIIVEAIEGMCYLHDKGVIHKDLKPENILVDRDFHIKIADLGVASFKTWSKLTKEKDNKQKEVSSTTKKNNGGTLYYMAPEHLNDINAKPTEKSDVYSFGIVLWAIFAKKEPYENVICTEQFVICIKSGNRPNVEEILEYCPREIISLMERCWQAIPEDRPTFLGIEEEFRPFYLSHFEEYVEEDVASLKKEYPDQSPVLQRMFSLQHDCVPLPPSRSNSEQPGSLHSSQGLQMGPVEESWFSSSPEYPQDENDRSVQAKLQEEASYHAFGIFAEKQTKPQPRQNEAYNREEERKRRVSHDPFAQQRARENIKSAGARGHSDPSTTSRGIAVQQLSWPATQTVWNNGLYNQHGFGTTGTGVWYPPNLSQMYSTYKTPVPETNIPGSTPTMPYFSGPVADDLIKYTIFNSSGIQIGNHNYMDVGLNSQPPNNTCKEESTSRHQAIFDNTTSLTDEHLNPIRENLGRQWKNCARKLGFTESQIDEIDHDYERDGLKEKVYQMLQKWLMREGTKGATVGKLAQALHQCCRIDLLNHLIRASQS


Legend:
[1] = target: T1, receptor-interacting protein kinase 1 (mouse (endogenous in left ventricle)); assay: co-IP; mouse myocardial (left-ventricular) tissue lysed in RIPA buffer with protease and phosphatase inhibitors; 1 μg primary antibody (TGFBR1, TAK1 or RIPK1) or IgG, 4°C; protein A/G beads overnight; western blot; groups of mice: control, shTGFBR1 + control, HFpEF (HFD + L-NAME), shTGFBR1 + HFpEF; which antibody precipitated in which panel is not told
[2] = target: T2, receptor-interacting protein kinase 1 …; assay: as above; settings: remark: other sources report otherwise

Binder | binding [1] | binding [2]
caspase-1 (enzyme, UniProt P29452 1-402) MADKILRAKRKQFINSVSIGTINGLLDELLEKRVLNQEEMDKIKLANITAMDKARDLCDHVSKKGPQASQIFITYICNEDCYLAGILELQSAPSAETFVATEDSKGGHPSSSETKEEQNKEDGTFPGLTGTLKFCPLEKAQKLWKENPSEIYPIMNTTTRTRLALIICNTEFQHLSPRVGAQVDLREMKLLLEDLGYTVKVKENLTALEMVKEVKEFAACPEHKTSDSTFLVFMSHGIQEGICGTTYSNEVSDILKVDTIFQMMNTLKCPSLKDKPKVIIIQACRGEKQGVVLLKDSVRDSEEDFLTDAIFEDDGIKKAHIEKDFIAFCSSTPDNVSWRHPVRGSLFIESLIKHMKEYAWSCDLEDIFRKVRFSFEQPEFRLQMPTADRVTLTKRFYLFPGH | binds | –
caspase-8 (enzyme, UniProt O89110 1-480) MDFQSCLYAIAEELGSEDLAALKFLCLDYIPHKKQETIEDAQKLFLRLREKGMLEEGNLSFLKELLFHISRWDLLVNFLDCNREEMVRELRDPDNAQISPYRVMLFKLSEEVSELELRSFKFLLNNEIPKCKLEDDLSLLEIFVEMEKRTMLAENNLETLKSICDQVNKSLLGKIEDYERSSTERRMSLEGREELPPSVLDEMSLKMAELCDSPREQDSESRTSDKVYQMKNKPRGYCLIINNHDFSKAREDITQLRKMKDRKGTDCDKEALSKTFKELHFEIVSYDDCTANEIHEILEGYQSADHKNKDCFICCILSHGDKGVVYGTDGKEASIYDLTSYFTGSKCPSLSGKPKIFFIQACQGSNFQKGVPDEAGFEQQNHTLEVDSSSHKNYIPDEADFLLGMATVKNCVSYRDPVNGTWYIQSLCQSLRERCPQGDDILSILTGVNYDVSNKDDRRNKGKQMPQPTFTLRKKLFFPP | binds | –
RIPK3, Q9QZL0 1-486 (enzyme) MSSVKLWPTGASAVPLVSREELKKLEFVGKGGFGVVFRAHHRTWNHDVAVKIVNSKKISWEVKAMVNLRNENVLLLLGVTEDLQWDFVSGQALVTRFMENGSLAGLLQPECPRPWPLLCRLLQEVVLGMCYLHSLNPPLLHRDLKPSNILLDPELHAKLADFGLSTFQGGSQSGSGSGSGSRDSGGTLAYLDPELLFDVNLKASKASDVYSFGILVWAVLAGREAELVDKTSLIRETVCDRQSRPPLTELPPGSPETPGLEKLKELMIHCWGSQSENRPSFQDCEPKTNEVYNLVKDKVDAAVSEVKHYLSQHRSSGRNLSAREPSQRGTEMDCPRETMVSKMLDRLHLEEPSGPVPGKCPERQAQDTSVGPATPARTSSDPVAGTPQIPHTLPFRGTTPGPVFTETPGPHPQRNQGDGRHGTPWYPWTPPNPMTGPPALVFNNCSEVQIGNYNSLVAPPRTTASSSAKYDQAQFGRGRGWQPFHK | – | binds
